# Primary screen of a compound library

Sequences of proteins named here, by UniProt entry; tags and fusion partners are left off.
UniProt E9BF75, entry or part of it: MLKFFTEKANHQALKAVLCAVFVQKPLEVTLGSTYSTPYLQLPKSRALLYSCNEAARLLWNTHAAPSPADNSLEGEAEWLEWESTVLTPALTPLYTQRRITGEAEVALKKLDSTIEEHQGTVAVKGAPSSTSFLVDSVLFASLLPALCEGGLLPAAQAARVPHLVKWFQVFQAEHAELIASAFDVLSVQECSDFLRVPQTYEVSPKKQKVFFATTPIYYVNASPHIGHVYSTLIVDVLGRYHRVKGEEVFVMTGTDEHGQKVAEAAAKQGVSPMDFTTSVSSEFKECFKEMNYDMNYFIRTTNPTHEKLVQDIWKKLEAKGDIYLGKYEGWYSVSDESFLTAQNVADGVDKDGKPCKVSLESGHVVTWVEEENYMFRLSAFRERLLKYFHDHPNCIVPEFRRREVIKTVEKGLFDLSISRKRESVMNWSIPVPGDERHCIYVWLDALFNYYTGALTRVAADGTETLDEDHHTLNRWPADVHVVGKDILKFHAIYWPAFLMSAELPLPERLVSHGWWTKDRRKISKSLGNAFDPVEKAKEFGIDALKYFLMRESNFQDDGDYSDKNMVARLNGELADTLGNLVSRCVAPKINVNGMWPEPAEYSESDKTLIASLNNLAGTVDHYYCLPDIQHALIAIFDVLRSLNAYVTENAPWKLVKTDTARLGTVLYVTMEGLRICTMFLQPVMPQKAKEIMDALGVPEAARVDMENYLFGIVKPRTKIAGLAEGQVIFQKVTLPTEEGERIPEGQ

Data taken from ChEMBL document CHEMBL3988442, “University of Dundee, Small-Polar-MMV Screening Library” (2021).

Results are percentages, as filed.
The record does not define 0% and 100%; most values in the screen are far below 50% and negative numbers occur (in some assays of this library far below -100).
Compounds were drawn at random from those tested, without regard to their results.

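Primary screen of methionyl-tRNA synthetase; the read-out is not stated. Target: Methionyl-tRNA synthetase (putative), Leishmania donovani (UniProt E9BF75). The test concentration is not given. Values are per cent inhibition. Of about 68,000 compounds tested this way, about 24 (0.035%) reached 50% or more in at least one test.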

structure	Inhibition
Cc1nccn1C1CCCN(C(=O)c2cnc[nH]2)C1 (stereo not drawn)	22.82%
Cn1cc(N2C(=O)C[C@@H]3[C@@H]2CCN3C(=O)c2ccco2)cn1	19.05%
c1ccc(CCc2n[nH]c(CCN3CCCCC3)n2)cc1	13.2%
CC(C)c1cc(C(=O)NC2CCN(CC(N)=O)CC2)nn1C(C)(C)C	11.11%
CC(O)CN1CCN(C(=O)c2sccc2C2CC2)CC1 (stereo not drawn)	10.03%
CC(NCC1CCN(CCO)CC1)c1cccc(Cl)c1 (stereo not drawn)	13.17%
Fc1ccc(CC2CCN(Cc3nccs3)CC2)cc1	11.17%
CC(CO)CN(Cc1ccccc1)Cc1c[nH]cn1 (stereo not drawn)	12.33%
CCc1nc(CC(=O)N2CCC(C(=O)N(CC)CC)CC2)cs1	8.078%
c1nc(N2CCOCC2)nc2c1COCC21CCN(CC2CC2)C1 (stereo not drawn)	12.97%
COCCN1CCC(CN(CC2CCCO2)C(=O)CNC(C)=O)CC1 (stereo not drawn)	8.451%
Cc1cc(=O)n2ncnc2n1CC(O)c1cc(F)ccc1F (stereo not drawn)	17.61%
Cn1nc(C2CN(C(=O)c3cccnc3)C2)c2nccnc21	4.688%
O=C(CC1C=CCC1)N1CCc2ncnc(NCc3ccon3)c2CC1 (stereo not drawn)	1.401%
COCCN1C(=O)C[C@H]2[C@H]1CCN2Cc1cccc(C#N)c1	9.408%
COc1ccc(F)cc1NC(=O)NCC1(CN2CCOCC2)CC1	8.711%
O=C(CCCc1nnc(-c2ccccc2)o1)N1CCN(C2CC2)CC1	14.46%
CCc1nnc2n1CCN(Cc1csc(NC(C)=O)n1)C2	4.19%
CNS(=O)(=O)c1ccc(CNC(=O)N(C)CC(O)COC)cc1 (stereo not drawn)	13.77%
COCCC(=O)N1CCC2(CC1)CC(c1ccccc1)CN(C1CC1)C2 (stereo not drawn)	10.44%
COC(=O)c1cccc(C(=O)N(CCC#N)CC(C)(C)C)c1	5.882%
NC(=O)C1CCN(C(=O)NC2CCN(CC3CCCC3)C2)CC1 (stereo not drawn)	16.25%
COCCN1CCC2(C1)CN(c1ncc(F)cn1)C2	-5.263%
COC(=O)CNC(=O)CSCc1nc(O)c2cc(C(C)C)sc2n1	7.884%
CS(=O)(=O)CCN1CCN(c2ccc(Cl)cn2)CC1	4.188%
Cc1noc(C)c1CN(C)C(=O)NC1CCN(C2CC2)CC1	6.135%
COc1c(C2CCCN2C(=O)c2ccc(Cl)o2)c(C)nn1C (stereo not drawn)	14.29%
O=C(Nc1cc(F)ccc1OCC1CCCO1)N1CCSCC1 (stereo not drawn)	10.8%
CCn1ncnc1C(C)NC(=O)Cc1cc2c(cc1Cl)OCCO2 (stereo not drawn)	18.37%
C[C@H]1C[C@H]2CN(C(=O)c3ccncn3)CC[C@@H]2O1	14.7%
CCOc1ncccc1C(=O)N1CCCC1c1c(C)nn(C)c1Cl (stereo not drawn)	7.65%
CC(=O)N1CCN(C(=O)NCCCN(C)S(C)(=O)=O)CC1	8.807%
CC1CCN(S(=O)(=O)N2Cc3ccccc3C[C@H]2C(N)=O)CC1	16.52%
CS(=O)(=O)c1cn[nH]c1C1CCCCN1C(=O)c1ccsc1 (stereo not drawn)	11.58%
CCCN(CC(F)(F)F)C(=O)c1cc(F)cc2[nH]cnc12	6.832%
Cc1nc(C2CCCN2CCOCC2CC2)no1 (stereo not drawn)	2.477%
Cc1ccc(NC(=O)N(C)C)c(C(=O)OCC(=O)NC(C)C(C)C)c1 (stereo not drawn)	3.093%
O=S(=O)(C1CC1)N1CCC[C@]2(C[C@@H](Oc3ccccn3)CO2)C1	0%
CC(C)n1c2ccccc2c2c1cc(C(=O)N(C)C)n2C(=O)N(C)C	14.99%
CC(=O)N1CCCn2nc(CNS(=O)(=O)Cc3ccccc3)cc2C1	15.6%
CCOC(=O)N(C)C1CCN(Cc2csc(C)n2)CC1	5.541%
Cc1cc(C)n(-c2ccc(CNCc3ccc(C)o3)cn2)n1	16.94%
CSc1ncc(CNCC2(N3CCCCC3)Cc3ccccc3C2)cn1	3.97%
CCOC1COC2(CCN(S(=O)(=O)c3cccc(C)c3)CC2)C1 (stereo not drawn)	5.333%
CC(C)S(=O)(=O)NCC1CCCN(C(=O)c2ccc3c(c2)CCC3)C1 (stereo not drawn)	7.389%
CN1CCC(NC(=O)C2CN(c3cncnc3)CCO2)CC1 (stereo not drawn)	16.08%
NC[C@H]1CC[C@H](c2c(C(N)=O)sc3ccccc32)CC1	13.12%
O=C(N1CCOCC1CO)C1(c2cccs2)CCCC1 (stereo not drawn)	8.696%
CCOCCCNC(=O)c1cn(CC)nc1C	11.2%
CCn1c(CNCC2CCCN2c2cccnn2)nc2ccccc21 (stereo not drawn)	15.06%
CSC(C)(C)CNC(=O)NC1CCN(C)CC1	14.63%
O=C(c1ccon1)N1CCc2ncnc(NCc3cccnc3)c2CC1	13.94%
CN1N=C(C(=O)N2CCCN(c3ncccc3C#N)CC2)CCC1=O	5.955%
CCO[C@@H]1CC[C@H]2[C@H]1OCCN2CCOCc1ccccc1	14.57%
CN(C)C(=O)CC1CC2(CCN(CC3CC3)CC2)c2cc(F)ccc21 (stereo not drawn)	2.357%
CN(CC1CN(CCn2cc(C#N)cn2)CCO1)c1cccnn1 (stereo not drawn)	11.98%
c1ccc(CCCn2cc(-c3nc(CN4CCOCC4)no3)nn2)cc1	7.467%
CCc1ccc(S(=O)(=O)N2CC[C@@](O)(CCOC)[C@H](C)C2)cc1	16.43%
COc1ccc(CNC(=O)C2(C#N)CCCC2)cc1	5.31%
Cc1nc(C)n(CC2CCCN(Cc3cccc(C(N)=O)c3)C2)n1 (stereo not drawn)	19.44%
CCN1C(=O)C2(CCCCC2)NC1c1cc(C#N)n(C)c1C (stereo not drawn)	10.22%
CC(=O)N1N=C(COc2ccc3c(c2)OCO3)OC1c1cccc(Cl)c1 (stereo not drawn)	8.163%
CC(C)NC(=O)[C@@H]1C[C@H](N)CN1C(=O)c1cc2ccccc2[nH]c1=O	16.81%
CS(=O)(=O)c1cccc(OCC(=O)N2CCCC2c2ccc[nH]2)c1 (stereo not drawn)	8.169%
O=C1Nc2ccccc2CNC12CCN(CC1CC1)CC2	12%
CCC[C@H]1CN(S(=O)(=O)c2c(C)noc2C)C[C@@H]1N	-10.03%
CC(C)c1[nH]c2ncccc2c1CN1CCOCC1	3.191%
Cc1ccc(CNCc2c[nH]nc2C(C)(C)C)c(OC2CCOC2)c1 (stereo not drawn)	8.696%